Results taken from PMC7518614.
Results are given in words; binding and its absence hold for the method and conditions named. Binding seen in cells or lysates may run through a third protein. Some binding calls cover weakened binding; strength is not graded here. For some assays here: Sequences can lack the tags named with a protein. Values belong to the molecule of their own block, whether it stands above or below them.

Sequences of proteins named here, by UniProt entry; tags and fusion partners are left off.
UniProt Q9CW03: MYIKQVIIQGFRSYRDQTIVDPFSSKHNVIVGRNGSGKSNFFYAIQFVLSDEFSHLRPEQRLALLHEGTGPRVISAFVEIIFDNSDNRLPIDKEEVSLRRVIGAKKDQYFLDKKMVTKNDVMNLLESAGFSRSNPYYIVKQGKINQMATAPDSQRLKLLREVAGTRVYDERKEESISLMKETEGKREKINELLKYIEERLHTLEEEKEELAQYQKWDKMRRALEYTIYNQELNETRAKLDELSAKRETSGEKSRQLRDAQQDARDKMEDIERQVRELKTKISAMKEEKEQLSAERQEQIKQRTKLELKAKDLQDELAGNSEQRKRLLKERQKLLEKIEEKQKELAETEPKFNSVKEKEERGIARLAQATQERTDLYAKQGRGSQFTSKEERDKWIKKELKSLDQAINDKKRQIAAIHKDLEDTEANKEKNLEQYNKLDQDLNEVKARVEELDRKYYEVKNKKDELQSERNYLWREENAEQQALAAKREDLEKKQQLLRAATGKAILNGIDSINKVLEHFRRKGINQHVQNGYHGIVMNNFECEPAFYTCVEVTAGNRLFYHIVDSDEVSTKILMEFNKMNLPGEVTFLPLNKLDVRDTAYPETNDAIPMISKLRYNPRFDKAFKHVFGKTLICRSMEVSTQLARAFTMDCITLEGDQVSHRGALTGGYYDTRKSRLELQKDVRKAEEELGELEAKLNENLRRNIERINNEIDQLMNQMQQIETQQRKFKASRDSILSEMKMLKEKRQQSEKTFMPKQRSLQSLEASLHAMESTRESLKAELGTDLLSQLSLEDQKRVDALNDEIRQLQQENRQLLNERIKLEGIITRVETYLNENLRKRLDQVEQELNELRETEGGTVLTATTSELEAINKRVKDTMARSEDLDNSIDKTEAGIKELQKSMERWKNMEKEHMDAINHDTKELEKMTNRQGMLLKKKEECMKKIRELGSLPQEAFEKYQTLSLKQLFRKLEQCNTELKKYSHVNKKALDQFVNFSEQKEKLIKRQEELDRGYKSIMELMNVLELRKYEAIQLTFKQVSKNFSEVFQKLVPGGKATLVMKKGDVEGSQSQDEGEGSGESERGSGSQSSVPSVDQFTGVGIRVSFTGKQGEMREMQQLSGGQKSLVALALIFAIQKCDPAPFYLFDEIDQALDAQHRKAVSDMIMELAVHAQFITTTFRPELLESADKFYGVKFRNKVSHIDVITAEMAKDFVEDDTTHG

Columns and labels:
[1] = molecular target: T1, HORMAD1 (mouse (endogenous in testis)) (UniProt Q9D5T7); test: co-IP; IP with anti-HORMAD1 antibody from chromatin-bound mouse testis extracts, western blot of the immunoprecipitates; WT testes (Fig 1D), WT (10 dpp) and Sycp2-KO testes (Fig 3F)
T1 sequence: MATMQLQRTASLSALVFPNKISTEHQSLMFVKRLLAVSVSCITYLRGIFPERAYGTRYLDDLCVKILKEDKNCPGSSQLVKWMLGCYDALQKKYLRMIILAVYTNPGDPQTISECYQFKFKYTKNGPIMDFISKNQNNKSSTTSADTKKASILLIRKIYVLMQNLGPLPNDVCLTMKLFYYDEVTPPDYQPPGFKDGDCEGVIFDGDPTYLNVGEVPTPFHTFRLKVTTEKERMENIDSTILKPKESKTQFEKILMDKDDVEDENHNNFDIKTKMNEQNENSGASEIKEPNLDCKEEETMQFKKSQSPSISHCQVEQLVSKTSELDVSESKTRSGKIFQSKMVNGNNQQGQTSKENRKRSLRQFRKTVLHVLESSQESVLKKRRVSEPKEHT

[2] = molecular target: T1, HORMAD1 (mouse (endogenous in testis)); test: proximity ligation; Duolink in situ PLA on spread chromatin of WT mouse spermatocytes; rabbit anti-HORMAD1 with mouse anti-RAD21L or anti-REC8; Hormad1-KO cells as negative control

B1: SMC1α (protein, UniProt Q9CU62 1-1233)
chain: MGFLKLIEIENFKSYKGRQIIGPFQRFTAIIGPNGSGKSNLMDAISFVLGEKTSNLRVKTLRDLIHGAPVGKPAANRAFVSMVYSEEGAEDRTFARVIVGGSSEYKINNKVVQLHEYSEELEKLGILIKARNFLVFQGAVESIAMKNPKERTALFEEISRSGELAQEYDKRKKEMVKAEEDTQFNYHRKKNIAAERKEAKQEKEEADRYQRLKDEVVRAQVQLQLFKLYHNEVEIEKLNKELASKNKEIEKDKKRMDKVEDELKEKKKELGKMMREQQQIEKEIKEKDSELNQKRPQYIKAKENTSHKIKKLEAAKKSLQNAQKHYKKRKGDMDELEKEMLSVEKARQEFEERMEEESQSQGRDLTLEENQVKKYHRLKEEASKRAATLAQELEKFNRDQKADQDRLDLEERKKVETEAKIKQKLREIEENQKRIEKLEEYITTSKQSLEEQKKLEGELTEEVEMAKRRIDEINKELNQVMEQLGDARIDRQESSRQQRKAEIMESIKRLYPGSVYGRLIDLCQPTQKKYQIAVTKVLGKNMDAIIVDSEKTGRDCIQYIKEQRGEPETFLPLDYLEVKPTDEKLRELKGAKLVIDVIRYEPPHIKKALQYACGNALVCDNVEDARRIAFGGHQRHKTVALDGTLFQKSGVISGGASDLKAKARRWDEKAVDKLKEKKERLTEELKEQMKAKRKEAELRQVQSQAHGLQMRLKYSQSDLEQTKTRHLALNLQEKSKLESELANFGPRINDIKRIIQSREREMKDLKEKMNQVEDEVFEEFCREIGVRNIREFEEEKVKRQNEIAKKRLEFENQKTRLGIQLDFEKNQLKEDQDKVHMWEQTVKKDENEIEKLKKEEQRHMKIIDETMAQLQDLKNQHLAKKSEVNDKNHEMEEIRKKLGGANKEMTHLQKEVTAIETKLEQKRSDRHNLLQACKMQDIKLPLSKGTMDDISQEEGSSQGEESVSGSQRTSSIYAREALIEIDYGDLCEDLKDAQAEEEIKQEMNTLQQKLNEQQSVLQRIAAPNMKAMEKLESVRDKFQETSDEFEAARKRAKKAKQAFEQIKKERFDRFNACFESVATNIDEIYKALSRNSSAQAFLGPENPEEPYLDGINYNCVAPGKRFRPMDNLSGGEKTVAALALLFAIHSYKPAPFFVLDEIDAALDNTNIGKVANYIKEQSTCNFQAIVISLKEEFYTKAESLIGVYPEQGDCVISKVLTFDLTKYPDANPNPNEQ
binding [1]: binds

B3: REC8 (protein, UniProt Q8C5S7 1-591)
chain: MFYYPNVLQRHTGCFATIWLAATRGSRLVKREYLNVNVVKTCEEILNYVLVRVQPPVAGLPRPRFSLYLSAQLQIGVIRVYFQQCQYLVEDIQHILEHLHRAQLRIRIDMEEADLPSLLLPNCLAMMETLEDAPEPFFGKMSVDPRLPSPFDIPQIRHLLEAATPEKTRKETLPEATPDPRKPDRTLATVQSPEVITLQEAEPIRMLQIEGEQDLPEISRGDLELLIAEKDDAILLEERQRGRLLRQRRASLPLDESREEPRALEGAGLVSALSPPAPAQVEGIQEALPGQVFPPEVQKMTGWEPGALLTEVTPPQELRLPAPPSTEKRLPSLQRPLPRRHRRRQLLFWDKETQISREKFEEQLQTGAHCWEYPVAQPPKRMLTSPAELFRTPTLSGWLPPELLGLWTHCAQVPQRMLRQRPQLETEETVEEERAADEEERRKTEALSEIEVLREAQEPSGPLMLSSELSLEAAEDEKSRTSLIPPEWWAWSEEGQPEPPALPMLPELPEVPMEMPPRPELSSEAVLRAVALKLQANKELDFSSLVPPLSPRKLASRVFYLLLVLSTQKILLVEQQKPYGPLLIRPGPKFP
binding [2]: binds | binding [1]: binds

The next lines start with the values.

binding [1]: binds
Molecule: SMC3 (from UniProt Q9CW03 1-1217)

binding [1]: binds
B2: STAG3 (protein, UniProt O70576 1-1240)
chain: MPTLWSPSTQHHGSSSGSESSPLQKSVRRAQMALSPCSSSILPCDDRDSQGTAEWDSPSTNEDSDFEDSLRRNVKKRAAKQPPKAVPAAKHRKKQSRIVSSGNGKNESVPSTNYLFDAVKAARSCMQSLVDEWLDNYKQDENAGFLELINFFIRACGCKSTVTPEMFKTMSNSEIIQHLTEEFNEDSGDYPLTAPGPSWKKFQGSFCEFVKTLVYQCQYSLLYDGFPMDDLISLLIGLSDSQVRAFRHTSTLAAMKLMTSLVKVALQLSLHKDNNQRQYEAERNKGPEQRAPERLESLLEKRKEFQENQEDIEGMMNAIFRGVFVHRYRDILPEIRAICIEEIGYWMQSYSTSFLNDSYLKYIGWTLHDKHKEVRLKCVKALAGLYSNQELSLRMELFTNRFKDRMVSMVMDRECEVAVEAIRLLTLILKNMEGVLTSADCEKIYSIVYISNRAMASSAGEFVYWKIFHPECGAKAVSDRERRRSPQAQKTFIYLLLAFFMESEHHNHAAYLVDSLWDCAGSYLKDWESLTNLLLQKDQNLGDMQERMLIEILVSSARQAAEGHPPVGRITGKKSLTAKERKLQAYDKMKLAEHLIPLLPQLLAKFSADAENVAPLLQLLSYFDLSIYCTQRLEKHLELLLQQLQEVVVKHVEPEVLEAAAHALYLLCKPEFTFFSRVDFARSQLVDFLTDRFQQELDDLMQSSFLDEDEVYSLTATLKRLSAFYNAHDLTRWEISEPCSRLLRKAVDTGEVPHQVILPALTLVYFSILWTVTHISESTSHKQLMSLKKRMVAFCELCQSCLSDVDPEIQEQAFVLLSDLLLIFSPQMIVGGRDFLRPLVFFPEATLQSELASFLMDHVFLQPGELGNGQSQEDHVQIELLHQRRRLLAGFCKLLLYGVLELDAASDVFKHYNKFYEDYGDIIKETLTRARQIDRCQCSRILLLSLKQLYTELIQEQGPQGLTELPAFIEMRDLARRFALSFGPQQLHNRDLVVMLHKEGIKFSLSELPPAGSSHEPPNLAFLELLSEFSPRLFHQDKRLLLSYLEKCLQRVSKAPNHPWGPVTTYCHSLHPLEITAEASPRGPPHSKKRCVEGPCRPQEEESSSQEESLQLNSGPTTPTLTSTAVKRKQSLRTVGKKQKGRPGPGPGPGPELICSQQLLGTQRLKMSSAPCFQIRCDPSGSGLGKQLTRLSLMEEDEEEELRLLDEEWQRGDKMLHSPSSPSEHGLDLLDTTELNMEDF
